From PubChem BioAssay AID2783 (National Center for Advancing Translational Sciences (NCATS), 2010)
The inconclusive results got no clear call from the source; some entries with a clear call stand among them for comparison. Potencies beside an inconclusive call are fits to weak or partial responses and may not hold up. A note “side channel” means that the fit belongs to a control or component signal, not to the main read-out. The source made the active and inactive calls. The call rests on the fitted dose curve; in most records, active means well fitted inhibition curve with a large enough effect in the polarisation, with a control signal flat (not every such curve was filed as active); inconclusive means small, poorly fitted or top-dose-only effect, or effect the other way, or a change in a side signal; inactive means no such curve, though single readings can be large or run the other way; the % refers to the polarisation. Where a SMILES comes first, the peptide text is derived from it. Bridges are numbered along the chain shown (N, C = ends). [ ]: non-standard residue; d: D form. The star is where a group is joined. ξ: configuration not given here. Octanoyl(6-Me) = CCC(C)CCCCC(=O)*; ξThr(3R) = C[C@@H](O)C(N)C(=O)O; dDab = NCC[C@@H](N)C(=O)O; Dab = NCC[CH](N)C(=O)O

The chains behind the UniProt entries cited, without tags or fusion partners.
UniProt Q03164, whole entry, looked up: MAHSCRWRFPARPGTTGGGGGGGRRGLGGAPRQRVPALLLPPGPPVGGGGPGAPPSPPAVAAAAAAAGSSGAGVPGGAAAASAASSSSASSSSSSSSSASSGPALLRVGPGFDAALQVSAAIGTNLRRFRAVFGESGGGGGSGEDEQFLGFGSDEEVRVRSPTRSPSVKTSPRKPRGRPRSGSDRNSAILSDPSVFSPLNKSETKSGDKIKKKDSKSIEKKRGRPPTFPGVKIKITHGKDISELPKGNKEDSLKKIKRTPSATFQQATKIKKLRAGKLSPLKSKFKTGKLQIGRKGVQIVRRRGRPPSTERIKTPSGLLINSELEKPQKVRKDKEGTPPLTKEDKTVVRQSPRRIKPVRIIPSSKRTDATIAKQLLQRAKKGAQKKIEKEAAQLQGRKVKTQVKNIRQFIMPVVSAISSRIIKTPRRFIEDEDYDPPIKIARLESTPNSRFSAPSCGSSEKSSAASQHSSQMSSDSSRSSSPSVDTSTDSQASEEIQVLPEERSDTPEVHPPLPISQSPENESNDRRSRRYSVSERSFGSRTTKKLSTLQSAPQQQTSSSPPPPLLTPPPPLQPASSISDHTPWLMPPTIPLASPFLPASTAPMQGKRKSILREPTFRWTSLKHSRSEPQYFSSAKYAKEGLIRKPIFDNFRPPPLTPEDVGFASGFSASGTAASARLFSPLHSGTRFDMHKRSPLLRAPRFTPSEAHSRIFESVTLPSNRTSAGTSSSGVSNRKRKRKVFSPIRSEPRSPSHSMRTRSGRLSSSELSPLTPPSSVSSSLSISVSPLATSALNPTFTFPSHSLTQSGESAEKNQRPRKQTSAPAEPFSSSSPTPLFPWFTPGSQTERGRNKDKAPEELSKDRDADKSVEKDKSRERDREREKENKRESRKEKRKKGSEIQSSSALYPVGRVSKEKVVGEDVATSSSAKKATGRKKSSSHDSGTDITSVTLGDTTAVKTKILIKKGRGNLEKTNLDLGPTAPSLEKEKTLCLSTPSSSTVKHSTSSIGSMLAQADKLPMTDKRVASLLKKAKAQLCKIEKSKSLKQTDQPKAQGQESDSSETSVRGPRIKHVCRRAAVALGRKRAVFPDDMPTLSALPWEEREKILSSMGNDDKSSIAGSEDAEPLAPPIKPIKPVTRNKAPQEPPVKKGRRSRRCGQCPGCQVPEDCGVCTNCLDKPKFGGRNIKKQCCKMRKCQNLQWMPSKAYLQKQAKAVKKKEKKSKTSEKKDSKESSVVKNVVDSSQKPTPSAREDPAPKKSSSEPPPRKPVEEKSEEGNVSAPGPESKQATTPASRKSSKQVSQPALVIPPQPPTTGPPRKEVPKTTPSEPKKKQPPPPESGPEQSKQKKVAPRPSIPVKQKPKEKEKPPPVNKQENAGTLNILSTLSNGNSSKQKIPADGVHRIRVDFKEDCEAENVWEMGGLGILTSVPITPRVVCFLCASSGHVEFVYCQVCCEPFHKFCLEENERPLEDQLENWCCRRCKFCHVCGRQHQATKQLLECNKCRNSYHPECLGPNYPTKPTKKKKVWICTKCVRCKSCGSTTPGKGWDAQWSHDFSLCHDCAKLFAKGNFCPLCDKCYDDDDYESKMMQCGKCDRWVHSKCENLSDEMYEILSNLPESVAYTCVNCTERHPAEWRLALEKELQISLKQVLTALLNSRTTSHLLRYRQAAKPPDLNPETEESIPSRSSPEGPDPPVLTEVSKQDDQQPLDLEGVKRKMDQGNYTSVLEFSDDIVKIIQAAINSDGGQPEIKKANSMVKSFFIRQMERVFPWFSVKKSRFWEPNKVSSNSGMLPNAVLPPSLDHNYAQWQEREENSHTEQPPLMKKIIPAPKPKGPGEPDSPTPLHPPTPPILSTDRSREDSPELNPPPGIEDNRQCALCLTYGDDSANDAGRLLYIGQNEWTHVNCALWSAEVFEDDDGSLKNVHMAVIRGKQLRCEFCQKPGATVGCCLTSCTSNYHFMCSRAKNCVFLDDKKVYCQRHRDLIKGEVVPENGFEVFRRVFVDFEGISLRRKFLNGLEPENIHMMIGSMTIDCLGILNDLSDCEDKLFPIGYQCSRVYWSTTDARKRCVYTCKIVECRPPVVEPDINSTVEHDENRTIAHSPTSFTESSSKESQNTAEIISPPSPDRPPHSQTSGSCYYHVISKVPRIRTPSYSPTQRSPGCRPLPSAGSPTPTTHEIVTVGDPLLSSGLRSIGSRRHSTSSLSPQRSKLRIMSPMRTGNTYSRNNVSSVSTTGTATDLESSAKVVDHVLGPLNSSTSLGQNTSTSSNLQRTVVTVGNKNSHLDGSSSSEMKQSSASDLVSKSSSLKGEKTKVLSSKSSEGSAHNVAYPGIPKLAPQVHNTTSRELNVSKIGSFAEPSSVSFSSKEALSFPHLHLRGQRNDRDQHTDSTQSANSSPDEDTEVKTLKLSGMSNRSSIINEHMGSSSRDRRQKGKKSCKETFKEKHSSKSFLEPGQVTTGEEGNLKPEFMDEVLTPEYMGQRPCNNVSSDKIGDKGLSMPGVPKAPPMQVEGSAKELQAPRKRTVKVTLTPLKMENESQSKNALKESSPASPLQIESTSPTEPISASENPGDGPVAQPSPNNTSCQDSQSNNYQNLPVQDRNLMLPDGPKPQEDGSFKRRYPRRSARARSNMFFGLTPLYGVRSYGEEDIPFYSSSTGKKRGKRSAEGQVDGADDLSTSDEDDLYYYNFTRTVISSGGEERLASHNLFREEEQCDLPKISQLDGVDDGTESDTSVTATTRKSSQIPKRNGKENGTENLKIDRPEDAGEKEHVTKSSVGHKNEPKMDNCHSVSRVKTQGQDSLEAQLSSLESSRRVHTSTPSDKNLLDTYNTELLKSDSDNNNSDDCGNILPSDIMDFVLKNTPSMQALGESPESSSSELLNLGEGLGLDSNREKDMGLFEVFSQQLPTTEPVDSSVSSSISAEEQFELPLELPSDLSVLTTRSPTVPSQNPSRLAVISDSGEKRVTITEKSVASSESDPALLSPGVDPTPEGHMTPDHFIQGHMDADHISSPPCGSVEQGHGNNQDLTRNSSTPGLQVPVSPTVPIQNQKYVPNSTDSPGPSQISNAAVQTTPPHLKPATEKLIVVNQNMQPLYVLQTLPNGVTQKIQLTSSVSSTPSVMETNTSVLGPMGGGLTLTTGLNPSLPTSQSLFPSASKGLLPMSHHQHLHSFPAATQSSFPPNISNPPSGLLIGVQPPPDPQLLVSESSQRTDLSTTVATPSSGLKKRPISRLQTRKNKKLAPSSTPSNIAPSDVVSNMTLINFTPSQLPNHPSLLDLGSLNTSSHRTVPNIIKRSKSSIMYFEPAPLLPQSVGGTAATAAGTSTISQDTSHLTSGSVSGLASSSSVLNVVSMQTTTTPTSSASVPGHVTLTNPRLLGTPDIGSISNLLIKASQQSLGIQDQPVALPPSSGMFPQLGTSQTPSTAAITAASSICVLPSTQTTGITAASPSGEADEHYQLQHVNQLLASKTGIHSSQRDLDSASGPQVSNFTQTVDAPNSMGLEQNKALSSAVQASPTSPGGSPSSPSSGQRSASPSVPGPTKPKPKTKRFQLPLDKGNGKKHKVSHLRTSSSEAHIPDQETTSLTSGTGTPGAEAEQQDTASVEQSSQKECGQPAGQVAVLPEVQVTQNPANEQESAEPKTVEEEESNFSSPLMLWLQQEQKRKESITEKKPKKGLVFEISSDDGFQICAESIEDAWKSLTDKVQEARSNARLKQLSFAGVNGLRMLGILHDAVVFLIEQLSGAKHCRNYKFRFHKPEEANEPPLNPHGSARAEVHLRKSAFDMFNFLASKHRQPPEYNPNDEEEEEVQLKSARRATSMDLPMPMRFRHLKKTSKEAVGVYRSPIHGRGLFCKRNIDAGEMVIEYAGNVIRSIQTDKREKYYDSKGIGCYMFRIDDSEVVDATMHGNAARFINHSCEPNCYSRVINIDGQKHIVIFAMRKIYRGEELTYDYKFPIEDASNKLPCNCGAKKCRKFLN

Biological target: Histone-lysine N-methyltransferase 2A (Homo sapiens) (UniProt Q03164)
Test: Confirmation of Inhibitors Targeting the Menin-MLL Interaction in MLL Related Leukemias: Competition With Fluorescein Labeled MLL-derived Peptide
Settings: Fluorescence polarization, fluorescein-MLL peptide displacement from menin
From the text: qHTS Assay for Inhibitors Targeting the Menin-MLL Interaction in MLL Related Leukemias
NIH Chemical Genomics Center [NCGC]
NIH Molecular Libraries Probe Centers Network [MLPCN]
Assay Submitter (PI): Jolanta Grembecka, Tomasz Cierpicki, University of Virginia
Translocations of the MLL (Mixed Lineage Leukemia) gene are frequently found in human leukemias affecting both children and adults. Fusion of MLL to one of more than 60 genes results in generation of oncogenic proteins upregulating Hox genes, which are vital to blood cell development. Patients harboring fusion of the MLL gene suffer from aggressive leukemias and respond poorly to available therapies. All of the oncogenic fusion proteins have a preserved N-terminal fragment of MLL that has been identified to interact with menin. It has been recently discovered that association with menin is critical to the leukemogenic activity of the MLL fusion oncoproteins. Selective targeting of the menin-MLL interaction could provide an attractive therapeutic approach to develop novel drugs for MLL-related leukemias. Small molecules blocking the menin-MLL interaction should reverse the oncogenic potential of MLL fusion proteins.
We have developed and optimized a fluorescence polarization-based assay for the identification of Menin-MLL inhibitors. The assay was run employing two different MLL-derived peptides. The present assay uses a 12 amino acid peptide labeled with fluorescein at its N-terminus. This peptide consists of the menin high affinity binding motif from MLL and is potently bound by menin. Another peptide with a mutated sequence, labeled with Texas Red, was used in parallel as a less stringent screen for inhibitors.
The present assay was run to confirm the activity of hits from the primary screen.
The Menin protein, the MLL-wild type (w.t.) derived peptide (N-terminal 12 amino acids), the MLL-derived peptide labeled with Texas Red and the MLL-w.t. peptide labeled with Fluorescein were kindly supplied by laboratory of Dr. Jolanta Grembecka, University of Virginia. All protein and peptide solutions were stored in single use aliquots at -80C. The Eu3+ Cyrptate-conjugated mouse monoclonal antibody anti-6 Histidine (Eu3+-AB) and the Streptavidin-XL665 conjugate (XL665) were purchased from Cisbio International (Bedford, MA). All antibody and XL665 conjugate solution stocks were stored in single use aliquots at -20C. The Buffer components for all assays were purchased from Sigma-Aldrich (St. Louis, MO) and Invitrogen (Carlsbad, CA).
1. FP reaction buffer: 50 mM Tris-HCl pH 7.5, 50 mM NaCl, 1mM DTT.
Before use, 0.05% BSA is added.
2. Menin protein, MLL-w.t. labeled with fluorescein, MLL-mutant peptide labeled with texas red.
Stored in singe use aliquots at -80C.
3. MLL-w.t. unlabeled peptide as positive control: 10 uM final in FP buffer.
1. Prepare Menin at 200 nM, MLL-w.t.-fluorescein at 25 nM, and MLL-mutant-texas red at 50 nM mixture in FP buffer.
2. Prepare Menin at 200 nM, MLL-w.t.-fluorescein at 25 nM, MLL-mutant-texas red at 50 nM, and 10 uM MLL-w.t. unlabeled mixture in FP buffer.
3. Prepare MLL-w.t.-fluorescein at 25 nM and MLL-mutant-texas red at 50 nM mixture in FP buffer.
3. Dispense 4 ul per well of reagent in step 1 in columns 2, 4 - 48 in a black 1536 well plate, dispense 4 ul per well of reagents from steps 2 and 3 in columns 1 and 3 respectively. Incubate plate at ambient for 15 minutes.
4. Transfer 23 nl per well of compound to plate and incubate at ambient for 1 hr.
5. Read fluorescence polarization for each label using the PerkinElmer Envision.
Envision protocol for fluorescein: FITC FP Dual Enh Mirror, Excitation filter 480, Emission filter (1) P-pol 535, Emission filter (2) S-pol 535
Envision protocol for texas red: FP Dual Enh Mirror, Excitation filter 555, Emission filter (1) P-pol 632, Emission filter (2) S-pol 632
Potency means the concentration at half of the fitted maximal effect.

| SMILES | Potency |
| --- | --- |
| C[C@H](NC(=O)c1cc2c(cn1)[nH]c1ccccc12)C(=O)O | active: 71 µM |
| CCOc1cc(CNCCc2ccc(S(N)(=O)=O)cc2)ccc1OCc1ccccc1 | active: 126 µM |
| O=C1c2ccccc2C(=O)c2c1ccc(O)c2O | inconclusive: 316 µM [inhibitor, partial curve] |
| CCC[n+]1c2ccccc2cc2ccccc21 | active: 63.2 µM |
| O=C(Nc1ccc(Oc2ccc3c(c2)C(=O)N(c2ccc(O)cc2)C3=O)cc1)c1cccs1 | inconclusive: 398 µM [quencher, side channel, partial curve] |
| COC(=O)[C@H](C)NC(=O)c1cc2c(cn1)[nH]c1ccccc12 | active: 50.2 µM |
| COc1ccccc1NS(=O)(=O)c1cc(N2Cc3ccccc3C2=N)ccc1N1CCOCC1 | active: 71 µM |
| NS(=O)(=O)c1ccc(NC(=O)c2ccc(-c3ccccc3)cc2)cc1 | inconclusive: 79.4 µM [quencher, side channel, partial curve] |
| CCC(C)CCCCC(=O)N[C@@H](CCN)C(=O)N[C@H](C(=O)N[C@@H](CCN)C(=O)N[C@H]1CCNC(=O)C([C@@H](C)O)NC(=O)[C@@H](CCN)NC(=O)[C@H](CCN)NC(=O)[C@H](CC(C)C)NC(=O)[C@@H](CC(C)C)NC(=O)[C@H](CCN)NC1=O)[C@@H](C)O (stereo partly drawn) ({Octanoyl(6-Me)}-[Dab]T[Dab][Dab][Dab][dL]L[Dab][dDab][ξThr(3R)]; lactam 4-C) | active: 12.6 µM |
| CN(C)[C@H]1C(=O)C(C(=O)NCN2CCCC2)=C(O)[C@]2(O)C(=O)C3=C(O)c4c(O)cccc4[C@](C)(O)[C@H]3C[C@H]12 | inconclusive: 63.2 µM [quencher, side channel, partial curve] |
| CN(C)c1ccc(C2CC(=O)C=C(Nc3ccccc3N)C2)cc1 (stereo not given) | inconclusive: 316 µM [inhibitor, partial curve] |
| NC(=NCCCCCCN=C(N)/N=C(\N)Nc1ccc(Cl)cc1)/N=C(\N)Nc1ccc(Cl)cc1 | active: 141 µM |
| NC(=O)[C@@H]1CCCNc2c(I)cc([N+](=O)[O-])cc2C(=O)N[C@@H](CCCN=C(N)N)C(=O)N[C@@H](CCCN=C(N)N)C(=O)N1 | active: 251 µM |
| CCC(c1nnnn1Cc1ccc(F)cc1)N1CCN(C2CCCCC2)CC1 (stereo not given) | active: 126 µM |
| O=C(CN1C(=O)/C(=C/c2cccc(Br)c2)SC1=S)NC1=NCCS1 | inconclusive: 50.2 µM [quencher, side channel, partial curve] |
| COc1ccc(OC)c(C2C3=C(N=c4s/c(=C\c5cccc(O)c5)c(=O)n42)c2ccccc2CC3)c1 (stereo not given) | inconclusive: 158 µM [fluorescent, side channel, partial curve] |
| CCOC(=O)CCC(=O)NCc1ccc2c(c1)cc(C)n2C | inconclusive: 501 µM [inhibitor, partial curve] |
| COc1ccc(-c2cc(=O)c3c(O)cc(O)c(-c4cc(-c5cc(=O)c6c(O)cc(O)cc6o5)ccc4OC)c3o2)cc1 | inconclusive: 316 µM [quencher, side channel, partial curve] |
| O=C1CCNc2c(Cl)cc(Cl)cc21 | inconclusive: 141 µM [fluorescent, side channel, partial curve] |
| CCCC[n+]1c2ccccc2cc2ccccc21 | active: 63.2 µM |

| SMILES | Potency |
| --- | --- |
| COc1ccc(OCCCn2ccnc2)cc1 | inconclusive: 251 µM [inhibitor, partial curve] |
| CCC(C)CCCCC(=O)NC(CCN)C(=O)NC(C(=O)NC(CCN)C(=O)NC1CCNC(=O)C(C(C)O)NC(=O)C(CCN)NC(=O)C(CCN)NC(=O)C(CC(C)C)NC(=O)C(Cc2ccccc2)NC(=O)C(CCN)NC1=O)C(C)O (stereo not given) ({Octanoyl(6-Me)}-[Dab]T[Dab][Dab][Dab]FL[Dab][Dab]T; lactam 4-C; configuration not given here) | active: 10 µM |
| COc1ccc2[nH]c3c(C)c4ccncc4c(C)c3c2c1 | inconclusive: 71 µM [quencher, partial curve] |
| O=C(Nc1cc(Br)ccc1O)c1cc(-c2ccco2)on1 | inconclusive: 316 µM [quencher, side channel, partial curve] |
| O=C1Cc2ccccc2Sc2c(OCCN3CCCCC3)cccc21 | inconclusive: 501 µM [inhibitor, partial curve] |
| Cc1ccccc1-c1cncnc1NC1CCNCC1 | inconclusive: 398 µM [inhibitor, partial curve] |
| CCNc1ccccc1CP(=O)(c1ccccc1)c1ccccc1O (stereo not given) | inconclusive: 100 µM [fluorescent, side channel, partial curve] |
| Nc1cccc2c1C(=O)N(C(=O)c1ccco1)C2=O | inconclusive: 158 µM [fluorescent, partial curve] |
| CCOC(=O)c1cnc2ccc(OCC)cc2c1N1CCN(C)CC1 | inconclusive: 56.4 µM [inhibitor, partial curve] |
| O=C(COC(=O)c1ccc(NS(=O)(=O)c2cccs2)cc1)Nc1nc2c(F)c(F)c(F)cc2s1 | inconclusive: 39.8 µM [quencher, side channel, partial curve] |
| Oc1ccc2ccccc2c1N=Nc1nccs1 | inconclusive: 126 µM [fluorescent, side channel, single point] |
| Cc1cnc(CNc2ccnc(-c3ccoc3)n2)cn1 | inconclusive: 141 µM [fluorescent, partial curve] |
| CCOC(=O)/C=c1\s/c(=C\c2ccc(-c3ccccc3)cc2)c(=O)n1CC(=O)NCc1ccc2c(c1)OCO2 | inconclusive: 89.1 µM [fluorescent, side channel, full curve] |
| COc1cc2cc3c4cc(OC)c(OC)cc4cc[n+]3c(C)c2cc1OC | inconclusive: 141 µM [fluorescent, side channel, partial curve] |
| CCCC(c1nnnn1Cc1ccco1)N1CCN(C2CCCC2)CC1 (stereo not given) | active: 126 µM |
| O=C1C(SCCO)=C(SCCO)C(=O)c2ccccc21 | inconclusive: 31.7 µM [quencher, side channel, full curve] |
| c1cc(CN2CCCNCCNCCCNCC2)ccc1CN1CCCNCCNCCCNCC1 | active: 31.6 µM |
| CCN(CC)Cc1cc2[nH]c3c4ccc(Cl)cc4ncc3c2cc1OC | inconclusive: 71 µM [quencher, partial curve] |
| CNC[C@H](CC1CCCCC1)NC[C@H](Cc1ccccc1)NCCC12CC3CC(CC(C3)C1)C2 | active: 79.4 µM |

Three compounds already listed, arranged by heavy-atom count, high to low:

| SMILES | Potency |
| --- | --- |
| NC(=O)[C@@H]1CCCNc2c(I)cc([N+](=O)[O-])cc2C(=O)N[C@@H](CCCN=C(N)N)C(=O)N[C@@H](CCCN=C(N)N)C(=O)N1 | active: 251 µM |
| COc1ccccc1NS(=O)(=O)c1cc(N2Cc3ccccc3C2=N)ccc1N1CCOCC1 | active: 71 µM |
| Cc1cnc(CNc2ccnc(-c3ccoc3)n2)cn1 | inconclusive: 141 µM [fluorescent, partial curve] |
